Literature values in patent US20260317384A1, “SMALL MOLECULE HUMANIN MIMETICS” (The Regents of the University Of California, priority 2023, published 2026).
“Also recorded” adds a separate entry of the source. Not every detail of the peptide structures is certain; ends, links or a residue may be inferred. Ends that are not written are not given here.

Experiments:
[1] = test system: trimeric complex involving CNTF, WSX1 and gp130; conditions: extracellular receptor complex CNTF; cited from earlier work
mitochondria and neurons = conditions: amyloid-β-related toxicity / AD-associated insults; cited from earlier work
PI3K/Akt pathway = conditions: neurons; cited from earlier work
[2] = model of AD; cited from earlier work

For CC[C@H](C)[C@H](NC(=O)[C@H](CCC(=O)O)NC(=O)[C@H](CO)NC(=O)[C@@H](NC(=O)[C@H](CC(C)C)NC(=O)[C@H](CC(C)C)NC(=O)[C@H](CC(C)C)NC(=O)[C@H](CC(C)C)NC(=O)[C@H](CS)NC(=O)[C@H](CO)NC(=O)[C@H](Cc1ccccc1)NC(=O)CNC(=O)[C@H](CCCNC(=N)N)NC(=O)[C@@H]1CCCN1C(=O)[C@H](C)NC(=O)[C@@H](N)CCSC)[C@@H](C)O)C(=O)N[C@@H](CC(=O)O)C(=O)N[C@@H](CC(C)C)C(=O)N1CCC[C@H]1C(=O)N[C@H](C(=O)N[C@@H](CCCCN)C(=O)N[C@@H](CCCNC(=N)N)C(=O)N[C@@H](CCCNC(=N)N)C(=O)N[C@@H](C)C(=O)O)C(C)C [Humanin (HN)], the “binding to receptor complex” value [1] is listed as “binds to this receptor complex as an agonist”, the protective effect (mitochondria and neurons) is listed as “protect mitochondria and neurons from amyloid-β (Aβ)-related toxicity; also recorded: protective against neuronal cell death induced by AD-associated insults” and the p-Akt levels (PI3K/Akt pathway) is listed as “increased p-Akt levels in neurons”.

For MAPRGFSCLLLLTGEIDLPVKRRA, the age-related memory impairment [2] is listed as “reversed age-related memory impairment”.
